# Where “and” joins values, the source holds several entries; their conditions need not be identical. Identical values can stand only once. Inconclusive results, whose numbers are uncertain, are shown with a selection of clear calls. A potency beside an inconclusive call is a rough fit, not a confirmed value. Some compounds were tested as several samples or in several runs, with calls that do not always agree. Calls of active or inactive are those of the source. How the source made its calls: active means hit-call score of the fitted dose curve at least 0.9, where 1 is the maximum; inconclusive means response in the unintended direction; inactive means score below 0.9.
# Assay: Tanguay_ZF_120hpf_CIRC_legacy: (Legacy) Oregon State University Tanguay Lab 120 Hour Post-fertilization zebrafish Assay for Circulatory Malformation (AID 2283651)
# Outline: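 Embryos are dechorionated at 4 hpf, plated one per well at 6 hpf, then held under static exposure at 28C until 120 hpf. Malformations are recorded as binary calls; mortality excludes other endpoints.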
SMILES,AC50,outcome
Oc1ccc(Cl)cc1Cc1ccccc1,inconclusive: 1.23 µM,
CCOc1cc(Oc2ccc(C(F)(F)F)cc2Cl)ccc1[N+](=O)[O-],inconclusive: 1.51 µM,
Clc1ccccc1-c1nnc(-c2ccccc2Cl)nn1,,inactive
CC(C)(C)C(O)C(Oc1ccc(Cl)cc1)n1cncn1 (centres undefined),active: 40.6 µM,inactive
CCCOCC(=Nc1ccc(Cl)cc1C(F)(F)F)n1ccnc1,inconclusive: 123 µM,
Cc1cc2c3c(c1)C(c1ccccc1)=N[C@@H](NC(=O)c1ccncc1)C(=O)N3CC2,inconclusive: 46.6 µM,
COC(=O)C=C(C)OP(=O)(OC)OC,,inactive

# Assay: Tanguay_ZF_120hpf_SWIM_legacy: (Legacy) Oregon State University Tanguay Lab 120 Hour Post-fertilization zebrafish Assay for Swim Bladder Malformation (AID 2283654);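 further: swim bladder malformation in each larva scored yes or no under brightfield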
# Outline: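 Scoring is binary for swim bladder defects at 120 hpf, by brightfield inspection of zebrafish larvae. Embryos were exposed singly from 6 hpf after pronase dechorionation, at 28C with 0.64% DMSO; mortality excluded scoring.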
SMILES,AC50,outcome
O=C(Nc1ccccc1)Nc1cnns1,inconclusive: 58.4 µM,
CO/N=C(/C1=NOCCO1)c1ccccc1Oc1ncnc(Oc2ccccc2Cl)c1F,inconclusive: 2.52 µM,
O=c1[nH]c(=O)[nH]c(=O)[nH]1,inconclusive: 31.3 µM,
CC(C)Oc1cccc(NC(=O)c2ccccc2C(F)(F)F)c1,,inactive
CCCN(CCC)c1c([N+](=O)[O-])cc(S(N)(=O)=O)cc1[N+](=O)[O-],inconclusive: 2.19 µM,
Oc1cccc2cccnc12,inconclusive: 7.12 µM,
C[N+]1(C)CCCCC1,,inactive
CCNS(=O)(=O)C(F)(F)C(F)(F)C(F)(F)C(F)(F)C(F)(F)C(F)(F)C(F)(F)C(F)(F)F,inconclusive: 195 µM,
CC(C)(C)C(O)C(Oc1ccc(Cl)cc1)n1cncn1 (centres undefined),inconclusive: 2.2 µM and active: 47.1 µM,inactive
Cc1cc2c3c(c1)C(c1ccccc1)=N[C@@H](NC(=O)c1ccncc1)C(=O)N3CC2,inconclusive: 10.9 µM,

# Assay: Tanguay_ZF_120hpf_TRUN_legacy: (Legacy) Oregon State University Tanguay Lab 120 Hour Post-fertilization zebrafish Assay for Truncated Body (AID 2283655)
# Outline: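 Truncated body is recorded as a binary endpoint at 120 hpf by brightfield imaging of wild-type 5D larvae. Exposure runs statically from 6 hpf at 28C with 0.64% DMSO; embryos dying earlier are not scored.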
row,SMILES,AC50
1,CCN(CC)C(=O)SCc1ccc(Cl)cc1,inconclusive: 2.89 µM
2,CO/N=C(/C1=NOCCO1)c1ccccc1Oc1ncnc(Oc2ccccc2Cl)c1F,inconclusive: 20.2 µM
3,C#CCOS(=O)OC1CCCCC1Oc1ccc(C(C)(C)C)cc1 (centres undefined),inconclusive: 158 µM
4,Oc1cccc2cccnc12,inconclusive: 3.82 µM
5,Cc1c(F)c(F)c(COC(=O)C2C(/C=C(\Cl)C(F)(F)F)C2(C)C)c(F)c1F (centres undefined),active: 2.36 µM
6,CCNS(=O)(=O)C(F)(F)C(F)(F)C(F)(F)C(F)(F)C(F)(F)C(F)(F)C(F)(F)C(F)(F)F,inconclusive: 195 µM
7,CC(C)(C)C(O)C(Oc1ccc(Cl)cc1)n1cncn1 (centres undefined),active: 32.2 µM and active: 47.2 µM
8,Oc1ccc(C(c2ccc(O)cc2)(C(F)(F)F)C(F)(F)F)cc1,active: 53 µM
9,OCCOc1ccccc1,inconclusive: 52.6 µM
10,Nc1c(Cl)cc([N+](=O)[O-])cc1Cl,active: 34.7 µM
